Reference: patent US9456605B2, “Isoxazoline derivatives as insecticides” (Syngenta Crop Protection LLC, priority 2010, dated 2016)
Some results were stated once for a whole list of compounds, not compound by compound. At least one structure is not confirmed: it was looked up by name or label, or the drawing left a doubt.

Assays:
Tetranychus urticae = assay: Tetranychus urticae, sprayed bean leaf discs, mixed ages; type: in vivo, Tetranychus urticae (two-spotted spider mite); conditions: bean leaf discs sprayed at 200 ppm, 8 days
Heliothis virescens = assay: Heliothis virescens, eggs on artificial diet; type: in vivo, Heliothis virescens (tobacco budworm); conditions: 200 ppm (concentration in well 18 ppm); eggs 0-24 h old; 4 days incubation
Spodoptera littoralis [1] = assay: Spodoptera littoralis, sprayed cotton leaf discs, L1 larvae; type: in vivo, Spodoptera littoralis (Egyptian cotton leafworm); conditions: cotton leaf discs sprayed at 200 ppm, 3 days after treatment
Plutella xylostella = assay: Plutella xylostella, L2 larvae on artificial diet; type: in vivo, Plutella xylostella (diamond back moth); conditions: 200 ppm (concentration in well 18 ppm), 6 days incubation
Myzus persicae [2] = assay: Myzus persicae (sachet), mixed population, sucrose solution; type: in vivo, Myzus persicae (green peach aphid); conditions: sachet test; application rate 12.5 ppm; 5 days after infestation
Diabrotica balteata = assay: Diabrotica balteata, L2 larvae on artificial diet; type: in vivo, Diabrotica balteata (corn root worm); conditions: 200 ppm (concentration in well 18 ppm), 5 days incubation
Thrips tabaci = assay: Thrips tabaci, sprayed sunflower leaf discs; type: in vivo, Thrips tabaci (onion thrips); conditions: sunflower leaf discs sprayed at 200 ppm; mixed ages; 7 days incubation
Myzus persicae [3] = assay: Myzus persicae, mixed population, feeding/residual contact activity, preventive, sunflower leaf discs; type: in vivo, Myzus persicae (green peach aphid); conditions: sunflower leaf discs sprayed at 200 ppm; mixed ages; 6 days incubation
Spodoptera littoralis [4] = assay: Spodoptera littoralis (systemic), compound in agar taken up by salad roots, eggs on cut leaves; type: in vivo, Spodoptera littoralis (Egyptian cotton leaf worm); conditions: application rate 12.5 ppm, 5 days after infestation, mortality, repellent effect, feeding behavior, growth regulation

Cc1cc(C2=CC(c3cc(Cl)cc(Cl)c3)(C(F)(F)F)ON2C)ccc1C(=O)NC1CSC1 (centres unmarked) [Compound A22]
at least 80%: control of Tetranychus urticae (Tetranychus urticae) | control of Heliothis virescens (Heliothis virescens) | control of Spodoptera littoralis (Spodoptera littoralis [1]) | control of Plutella xylostella (Plutella xylostella) | control of Myzus persicae (Myzus persicae [2]) | control of Diabrotica balteata (Diabrotica balteata) | control of Thrips tabaci (Thrips tabaci)

COc1ccc(CNC(=O)c2ccc(C3=CC(c4cc(Cl)cc(Cl)c4)(C(F)(F)F)ON3C)cc2C)cc1 (centres unmarked) [Compound A12]
at least 80%: control of Heliothis virescens (Heliothis virescens) | control of Spodoptera littoralis (Spodoptera littoralis [1]) | control of Plutella xylostella (Plutella xylostella) | control of Diabrotica balteata (Diabrotica balteata)

Cc1cc(C2=CC(c3cc(Cl)cc(Cl)c3)(C(F)(F)F)ON2Cc2ccccc2)ccc1C(=O)NC1C[S+]([O-])C1 (centres unmarked) [Compound A51]
at least 80%: control of Tetranychus urticae (Tetranychus urticae) | control of Heliothis virescens (Heliothis virescens) | control of Spodoptera littoralis (Spodoptera littoralis [1]) | control of Plutella xylostella (Plutella xylostella) | control of Diabrotica balteata (Diabrotica balteata)

Cc1cc(C2=CC(c3cc(Cl)cc(Cl)c3)(C(F)(F)F)ON2C)ccc1C(=O)NCc1ccccc1F (centres unmarked) [Compound A10]
at least 80%: control of Tetranychus urticae (Tetranychus urticae) | control of Spodoptera littoralis (Spodoptera littoralis [1]) | control of Plutella xylostella (Plutella xylostella) | control of Diabrotica balteata (Diabrotica balteata) | control of Thrips tabaci (Thrips tabaci)

C=CCN1OC(c2cc(Cl)cc(Cl)c2)(C(F)(F)F)C=C1c1ccc(C(=O)NC2CSC2)c(C)c1 (centres unmarked) [Compound A26]
at least 80%: control of Tetranychus urticae (Tetranychus urticae) | control of Heliothis virescens (Heliothis virescens) | control of Spodoptera littoralis (Spodoptera littoralis [1]) | control of Plutella xylostella (Plutella xylostella) | control of Diabrotica balteata (Diabrotica balteata) | control of Thrips tabaci (Thrips tabaci)

Cc1cc(C2=CC(c3cc(Cl)cc(Cl)c3)(C(F)(F)F)ON2C)ccc1C(=O)NC1CON(CC(F)(F)F)C1=O (mixture of isomers) [Compound A28]
at least 80%: control of Tetranychus urticae (Tetranychus urticae) | control of Heliothis virescens (Heliothis virescens) | control of Plutella xylostella (Plutella xylostella) | control of Myzus persicae (Myzus persicae [2]) | control of Diabrotica balteata (Diabrotica balteata) | control of Thrips tabaci (Thrips tabaci)

CCNC(=O)c1ccc(C2=CC(c3cc(Cl)cc(Cl)c3)(C(F)(F)F)ON2Cc2ccccc2)cc1C (centres unmarked) [Compound A32]
at least 80%: control of Spodoptera littoralis (Spodoptera littoralis [1]) | control of Plutella xylostella (Plutella xylostella) | control of Diabrotica balteata (Diabrotica balteata)

Cc1csc(NC(=O)c2ccc(C3=CC(c4cc(Cl)cc(Cl)c4)(C(F)(F)F)ON3C)cc2C)n1 (centres unmarked) [Compound A18]
at least 80%: control of Heliothis virescens (Heliothis virescens) | control of Plutella xylostella (Plutella xylostella) | control of Myzus persicae (Myzus persicae [3]) | control of Diabrotica balteata (Diabrotica balteata)

CN1OC(c2cc(Cl)cc(Cl)c2)(C(F)(F)F)C=C1c1ccc(-n2cncn2)c(C#N)c1 (centres unmarked) [Compound C1, 5-[5-(3,5-Dichloro-phenyl)-2-methyl-5-trifluoromethyl-2,5-dihydm-isoxazol-3-yl]-2-[1,2,4]triazol-1-yl-benzonitrile]
at least 80%: control of Tetranychus urticae (Tetranychus urticae) | control of Spodoptera littoralis (Spodoptera littoralis [1]) | control of Plutella xylostella (Plutella xylostella) | control of Myzus persicae (Myzus persicae [3]) | control of Diabrotica balteata (Diabrotica balteata) | control of Thrips tabaci (Thrips tabaci)

CCN1OCC(NC(=O)c2ccc(C3=CC(c4cc(Cl)cc(Cl)c4)(C(F)(F)F)ON3C)cc2C)C1=O (mixture of isomers) [Compound A27]
at least 80%: control of Tetranychus urticae (Tetranychus urticae) | control of Heliothis virescens (Heliothis virescens) | control of Plutella xylostella (Plutella xylostella) | control of Thrips tabaci (Thrips tabaci)

Cc1cc(C2=CC(c3cc(Cl)cc(Cl)c3)(C(F)(F)F)ON2C)ccc1C(=O)NCc1nc2ccccc2[nH]1 (centres unmarked) [Compound A5]
at least 80%: control of Plutella xylostella (Plutella xylostella) | control of Spodoptera littoralis (Spodoptera littoralis [4]) | control of Myzus persicae (Myzus persicae [2])

Cc1cc(C2=CC(c3cc(Cl)cc(Cl)c3)(C(F)(F)F)ON2C)ccc1C(=O)NC1CC2CCC1C2 (centres unmarked) [Compound A23]
at least 80%: control of Plutella xylostella (Plutella xylostella) | control of Diabrotica balteata (Diabrotica balteata) | control of Thrips tabaci (Thrips tabaci)

Cc1cc(C2=CC(c3cc(Cl)cc(Cl)c3)(C(F)(F)F)ON2C)ccc1C(=O)NCc1ccccn1 (centres unmarked) [Compound A16]
at least 80%: control of Tetranychus urticae (Tetranychus urticae) | control of Heliothis virescens (Heliothis virescens) | control of Spodoptera littoralis (Spodoptera littoralis [1]) | control of Plutella xylostella (Plutella xylostella) | control of Myzus persicae (Myzus persicae [2]) | control of Thrips tabaci (Thrips tabaci)

Cc1cc(C2=CC(c3cc(Cl)cc(Cl)c3)(C(F)(F)F)ON2Cc2ccccc2)ccc1C(=O)NC1CS(=O)(=O)C1 (centres unmarked) [Compound A43]
at least 80%: control of Tetranychus urticae (Tetranychus urticae) | control of Heliothis virescens (Heliothis virescens) | control of Spodoptera littoralis (Spodoptera littoralis [1]) | control of Plutella xylostella (Plutella xylostella) | control of Diabrotica balteata (Diabrotica balteata) | control of Thrips tabaci (Thrips tabaci)

Cc1cc(C2=CC(c3cc(Cl)cc(Cl)c3)(C(F)(F)F)ON2C)ccc1CNC(=O)Cc1csc(-c2ccccc2)n1 (centres unmarked) [Compound B21]
at least 80%: control of Myzus persicae (Myzus persicae [2])

Cc1cc(C2=CC(c3cc(Cl)cc(Cl)c3)(C(F)(F)F)ON2C)ccc1C(=O)NCc1ccc(Cl)nc1 (centres unmarked) [Compound A14]
at least 80%: control of Tetranychus urticae (Tetranychus urticae) | control of Heliothis virescens (Heliothis virescens) | control of Spodoptera littoralis (Spodoptera littoralis [1]) | control of Plutella xylostella (Plutella xylostella) | control of Diabrotica balteata (Diabrotica balteata) | control of Thrips tabaci (Thrips tabaci)

CCNC(=O)c1ccc(C2=CC(c3cc(Cl)cc(Cl)c3)(C(F)(F)F)ON2C)cc1C (centres unmarked) [Compound A2]
at least 80%: control of Tetranychus urticae (Tetranychus urticae) | control of Plutella xylostella (Plutella xylostella) | control of Diabrotica balteata (Diabrotica balteata) | control of Thrips tabaci (Thrips tabaci)

Cc1cc(C2=CC(c3cc(Cl)cc(Cl)c3)(C(F)(F)F)ON2Cc2ccccc2)ccc1C(=O)NCC(=O)NCC(F)(F)F (centres unmarked) [Compound A35]
at least 80%: control of Tetranychus urticae (Tetranychus urticae) | control of Heliothis virescens (Heliothis virescens) | control of Spodoptera littoralis (Spodoptera littoralis [1]) | control of Plutella xylostella (Plutella xylostella) | control of Diabrotica balteata (Diabrotica balteata) | control of Thrips tabaci (Thrips tabaci)

Cc1cc(C2=CC(c3cc(Cl)cc(Cl)c3)(C(F)(F)F)ON2C)ccc1C(=O)NC1CS(=O)(=O)C1 (centres unmarked) [Compound A13]
at least 80%: control of Tetranychus urticae (Tetranychus urticae) | control of Heliothis virescens (Heliothis virescens) | control of Spodoptera littoralis (Spodoptera littoralis [1]) | control of Plutella xylostella (Plutella xylostella) | control of Myzus persicae (Myzus persicae [2]) | control of Diabrotica balteata (Diabrotica balteata) | control of Thrips tabaci (Thrips tabaci)

Cc1cc(C2=CC(c3cc(Cl)cc(Cl)c3)(C(F)(F)F)ON2Cc2ccccc2)ccc1C(=O)NC1CSC1 (centres unmarked) [Compound A52]
at least 80%: control of Heliothis virescens (Heliothis virescens) | control of Spodoptera littoralis (Spodoptera littoralis [1]) | control of Plutella xylostella (Plutella xylostella) | control of Myzus persicae (Myzus persicae [2]) | control of Diabrotica balteata (Diabrotica balteata) | control of Thrips tabaci (Thrips tabaci)

CCCCNC(=O)c1ccc(C2=CC(c3cc(Cl)cc(Cl)c3)(C(F)(F)F)ON2C)cc1C (centres unmarked) [Compound A3, N-Butyl-4-[5-(3,5-dichloro-phenyl)-2-methyl-5-trifluoromethyl-2,5-dihydro-isoxazol-3-yl]-2-methyl-benzamide]
at least 80%: control of Plutella xylostella (Plutella xylostella) | control of Diabrotica balteata (Diabrotica balteata)

Cc1cc(NC(=O)c2ccc(C3=CC(c4cc(Cl)cc(Cl)c4)(C(F)(F)F)ON3C)cc2C)n(C)n1 (centres unmarked) [Compound A17]
at least 80%: control of Heliothis virescens (Heliothis virescens) | control of Spodoptera littoralis (Spodoptera littoralis [1]) | control of Plutella xylostella (Plutella xylostella) | control of Spodoptera littoralis (Spodoptera littoralis [4])

Cc1cc(C2=CC(c3cc(Cl)cc(Cl)c3)(C(F)(F)F)ON2Cc2ccccc2)ccc1C(=O)NC1CC2CCC1C2 (centres unmarked) [Compound A53]
at least 80%: control of Spodoptera littoralis (Spodoptera littoralis [4])

Cc1cc(C2=CC(c3cc(Cl)cc(Cl)c3)(C(F)(F)F)ON2C)ccc1C(=O)NC1C[S+]([O-])C1 (centres unmarked) [Compound A21]
at least 80%: control of Tetranychus urticae (Tetranychus urticae) | control of Heliothis virescens (Heliothis virescens) | control of Spodoptera littoralis (Spodoptera littoralis [1]) | control of Plutella xylostella (Plutella xylostella) | control of Spodoptera littoralis (Spodoptera littoralis [4]) | control of Myzus persicae (Myzus persicae [2]) | control of Diabrotica balteata (Diabrotica balteata) | control of Thrips tabaci (Thrips tabaci)
